# Most values lie at the floor of the assay. Slopes are relative: functional sequences can read slightly below zero.
# Tested on: Saccharomyces cerevisiae PS128 hsf1 delta, HSF1(1-493) fusion
# Assay: growth estimate (transactivation domain function in HSF1 fusion, heat-shock survival) (a.u. (slope of normalised read count over time)); higher = stronger growth at 37°C, i.e. more transactivation activity
# Conditions: library: random library
row,Substance,growth estimate
1,GKSSTIGALLLRI,< -0.25
2,IKREGCVQSGPG,< -0.25
3,HPDEQGKAARFKVFRRD,< -0.25
4,LELNFYKEAAIVTGAVMCGL,< -0.25
5,KGGG,< -0.25
6,RFTTASALAGSRDSQRTLSS,< -0.25
7,SWLLPSHLGDTVMSICLKIY,< -0.25
8,PGAFPDHMIL,< -0.25
9,KGMRSAVRSTRRRGRRPRAV,< -0.25
10,CSDSRGWLDKSNKNPFLGSR,< -0.25
11,NSTHRDETR,< -0.25
12,WITVCELRLLEAKVSLPTRA,< -0.25
13,SGYWSFGEG,-0.231
14,WSKDLRGPQAVDAIQELRYS,< -0.25
15,KRVWGVMPVQRHFMEPFTY,< -0.25
16,YRISTVSALGVSK,< -0.25
17,PGPYDPGA,< -0.25
18,SQVEMLLGGEGLMFGPPAKP,< -0.25
19,TPRVDSLPAYRLDYRTLL,< -0.25
20,HCYRSGAQIPYFVRKLCTHL,< -0.25
21,TIAT,< -0.25
22,CGALSGI,< -0.25
23,VCLGRYQCVSLAVSPISGCE,-0.245
24,ARDVSALSVESRVFRAVMRK,< -0.25
25,FRVSRVGAAVICTRYLHQAR,< -0.25

row,Substance,growth estimate
1,MQLGPSSSVHRPRASHPSTP,< -0.25
2,AVAIEYDTTDDGRGTVSNPD,< -0.25
3,PLRLLLQGYCLATLGFSPAD,< -0.25
4,TSMKLGSGSTFSFCSYGVVT,< -0.25
5,RELIG,< -0.25
6,SGQVSHRSVGYSLR,< -0.25
7,TGYGFAWPLSQVEFDGGHGL,< -0.25
8,MTPESVECPIVSPTDIAFFA,< -0.25
9,GLGRLSVCGHGCYTWFLR,< -0.25
10,FNSALVVRSSIALRAMAAVH,< -0.25
11,GVVSSNWSVSDPQASHTKRC,< -0.25
12,AATHGLNPMVWT,< -0.25
13,GGAEFNLDISRGSELFNRRV,-0.0118
14,HEGKGDNSHDKSEYVRVTCW,< -0.25
15,VYTYCVYAEVRARYRLLWTM,< -0.25
16,EGSLEEGKMRTCCRCALRDE,< -0.25
17,LRFRPGRW,-0.219
18,DSVEEKWIL,< -0.25
19,RVGIQAVSP,< -0.25
20,VEENIPYMRPSVSCRTVVMC,< -0.25
21,ATDHAPELF,-0.232
22,KWMLHTGAWFFTYLLNER,< -0.25
23,ARVGMVVGRGTARGSIYVSV,< -0.25
24,FRMSRQMVLYTRVSFMRSGP,< -0.25
25,LWVHRFAKNRSGKCLVGNDL,< -0.25

# An excerpt from the list above:
row,Substance,growth estimate
18,DSVEEKWIL,< -0.25
19,RVGIQAVSP,< -0.25
20,VEENIPYMRPSVSCRTVVMC,< -0.25
21,ATDHAPELF,-0.232
22,KWMLHTGAWFFTYLLNER,< -0.25
23,ARVGMVVGRGTARGSIYVSV,< -0.25
24,FRMSRQMVLYTRVSFMRSGP,< -0.25

# Continued:

row,Substance,growth estimate
1,NSPARVPATAG,< -0.25
2,KGVLSDKASDSLRKPRPATL,< -0.25
3,TSSILGGAKIQEKHNSCNHP,< -0.25
4,VPTIYCQGLGLYRYRGDNVA,< -0.25
5,SKGHPIRSGYGRFIA,< -0.25
6,ASDKYDNEGQRVAGSYKLDN,< -0.25
7,WDNLL,< -0.25
8,PGVSA,< -0.25
9,QRGMFKGGPDHH,< -0.25
10,SVASGDQPARRIQVLRLALN,< -0.25
11,PAFALFVVFGRFVHEPAIGH,< -0.25
12,FSQSTLEGLIKVLPLQDPAG,< -0.25
13,RYLQESYSVLMPPGPPACRH,< -0.25
14,VAFRPTHTDRSVCKHRG,< -0.25
15,MDEIFWFGESRVPLAAVQSG,< -0.25
16,FIPRSSQAAAGDIPAMNSSD,< -0.25
17,RIR,< -0.25
18,GLHS,< -0.25
19,SRPVESKACLSKNIRLNGRT,< -0.25
20,AGGCDWFLETERRVPNLCRP,< -0.25
21,QEVPSRLKQYYYTVVKGWAR,< -0.25
22,SYHYSTVYPV,< -0.25
23,SQAQENREQVLC,< -0.25
24,PEKDRAIARGKQTGAYPEIN,< -0.25
25,RSYAPAESGAVSNYGHVVAF,< -0.25

# Some of the entries above in a different format.
row | Substance | growth estimate
1 | NSPARVPATAG | < -0.25
2 | KGVLSDKASDSLRKPRPATL | < -0.25

# Next part

row,Substance,growth estimate
1,RQSKALHGS,< -0.25
2,PLAMLLSVH,< -0.25
3,NLREPQVFPYVGDDFGHSAI,< -0.25
4,HDERSDPHDRGRWLRHVWRH,< -0.25
5,KRLLRSNLEPQPSVR,< -0.25
6,QSLPLAVRRRAYQTGPRFR,-0.219
7,TWAFPRAGAKSAPWRPGPWE,< -0.25
8,WHWTP,< -0.25
9,TDGCRSYQRSILQCRWGGIG,< -0.25
10,CSHGLGERAIVPALWQ,< -0.25
11,TNPLHPFTLTGAE,< -0.25
12,ERPPPCSSGGHVRHRSSVRD,< -0.25
13,WQFMKQ,< -0.25
14,TMERAIRTRRLLARTRPPTQ,< -0.25
15,VFTHDGVGSMGSTGSGRRRC,< -0.25
16,HLIVAAGITGTMLPLHEHIL,< -0.25
17,LLSRLSLDSVDQRLQLHLVR,< -0.25
18,VVLHFRASYIPYLRLST,< -0.25
19,INWEPKAHAW,< -0.25
20,SVPSKTLVKECSLAQEMIAF,< -0.25
21,HLFLCERDFGKVGNLQSQPS,< -0.25
22,EFYFERVGTIGCDVNRG,< -0.25
23,PVGHCFLLELTVEKIGPSHV,< -0.25
24,SRGDGCARTPERSIGFRGGG,< -0.25
25,TGRLIVSECLPPWPDFPQTG,< -0.25

row,Substance,growth estimate
1,GRERGP,< -0.25
2,CAYSSCPGLMVFCGAYVLG,< -0.25
3,RYRNGERFRRAPPGCSFPGR,< -0.25
4,ASFWVRRLPGVHELQRPTAH,< -0.25
5,RQQ,< -0.25
6,HAEGVPEQALIIRIPNPGAP,< -0.25
7,WPVCEAHIFEREVGVHYGAI,< -0.25
8,TVSSAVAPLTLILPTVGQAQ,< -0.25
9,ISPKTVSTGRVLARGMLLSH,< -0.25
10,GINEPLIKEKC,< -0.25
11,GRSDVTRMG,< -0.25
12,TQMVRIEGVSVRGTVP,< -0.25
13,AGCRS,< -0.25
14,RTGRIRRCDPSRSERLSVPT,< -0.25
15,LVVAFWSDKIADDPQNTGRP,< -0.25
16,TINQSIGNDLGLRASCCDSP,< -0.25
17,LGCVASYRHETS,< -0.25
18,RRAAGCQLYCSSG,< -0.25
19,AEQSRR,-0.243
20,VPINASNTPMTDRAPRESSD,< -0.25
21,HDRVFSEHRRS,< -0.25
22,VLLLLLLCENPVTVQVDAGT,< -0.25
23,NESHRPPWM,< -0.25
24,NRCRSRP,< -0.25
25,ASIVSPLRSADHSGSGSN,< -0.25

row,Substance,growth estimate
1,FMSSARTSGSEQWIQATRVR,< -0.25
2,CREVLPGSSRRGA,< -0.25
3,FARAPKNYLGWFKGTLPKDA,< -0.25
4,MKYSLTR,< -0.25
5,WCTLLV,< -0.25
6,TFLDPPCRIADVLRHRVGIL,< -0.25
7,LVGGQCTSTEAPSDGLIMSA,< -0.25
8,LGA,< -0.25
9,VWG,< -0.25
10,TRGI,< -0.25
11,GPTGSDFGSCVWVGYMSLPA,< -0.25
12,VWHQYSGYQLSC,< -0.25
13,TCNRDGEGMVFLHNTKLGAW,< -0.25
14,VITYS,< -0.25
15,RGEFRRPLVR,< -0.25
16,EFRIY,< -0.25
17,LYRGPNRCDYLAINPWEVVA,< -0.25
18,EKVWLASCGIFGSIRREMVR,< -0.25
19,KLR,< -0.25
20,SGTLAI,< -0.25
21,SEHAYSVQVCLLLIVIDIVS,< -0.25
22,SRFLG,< -0.25
23,LYDLLRQFVRLPWALNK,-0.239
24,PRARLAGVICTWHESLVREW,< -0.25
25,QRSRNGRLIREYRR,< -0.25

row,Substance,growth estimate
1,FRVWRNDCREFLWRVSGDDI,< -0.25
2,DQWLLVRAEFPRASRTETMS,< -0.25
3,YEGGGGGTRDSAPWSQVQDA,< -0.25
4,SVSTVRY,< -0.25
5,IDIRD,-0.0635
6,GNSIAWMGLPCACRGRVGLL,< -0.25
7,TFSTSADILEVEYWV,< -0.25
8,NLPPS,< -0.25
9,RVDLQRMVQEAQSPVASVDW,< -0.25
10,TLTLSSIERLRRFTPRSLGS,< -0.25
11,HHRYIGERMSTISRCGLG,< -0.25
12,AICTGNCFCRCDSC,-0.243
13,KGSTVCRSTQH,< -0.25
14,LSRRGNSLVTTSPWRFFLHV,< -0.25
15,VFDVSAWG,0.0415
16,RRSDVQRSSLIRRSKQRREG,< -0.25
17,YDWCALQT,0.207
18,VIGR,< -0.25
19,KLLMSSRLLGWPLTLCTVAR,< -0.25
20,TLLHPISTEAAH,< -0.25
21,DICVYFREISHKGYSSSRQR,< -0.25
22,NRMHN,< -0.25
23,MDLR,< -0.25
24,GGGASLE,< -0.25
25,ISEVIYLHIVSEWAYISKRD,< -0.25

row,Substance,growth estimate
1,WGNSIATILQPSSARTGNIA,< -0.25
2,KIYGLVGVPNGNRKVITQLA,< -0.25
3,TVLVLRYGRNRPAPVIGTPV,< -0.25
4,YLFASTTRYIWVSSTIYGSN,< -0.25
5,VCESATEVEN,< -0.25
6,RMIVQRRRTQVGVLLSCVAR,< -0.25
7,KRLGITYRLCMN,< -0.25
8,GRVALLSLKSREGIIGS,< -0.25
9,DWIRDHPRTSVRTRIRNRFR,< -0.25
10,SLLVVK,< -0.25
11,FPCG,< -0.25
12,LVVPAYMPGGAAHRTRSDTA,-0.228
13,CKMRCLDWVGASPF,< -0.25
14,GHDGFSRSTRFNIRA,< -0.25
15,RRLQLCKVEAWGETNADGFR,< -0.25
16,LALRIIWAIRFARDSGLHRL,< -0.25
17,QFASATEVTTIYT,< -0.25
18,SETEGTADHVGCLSSRAFQW,< -0.25
19,RRGRVINESVHC,< -0.25
20,QGIGPRET,< -0.25
21,CRRVF,-0.248

# Reference: the supplement of paper PMC5949888
